Source: patent US4743584A (Merck & Co., Inc., priority 1986, dated 1988)

Assay: general procedure: Boc solid-phase peptide synthesis
Details: whole synthesis

Boc-PHPFKLLVF
final HPLC purity (HPLC, scale of the general procedure 2 mmole): 91% | crude mass (scale 2 mmole): 1.76 g

No end group written: not given here. *: point of attachment. Boc = CC(C)(C)OC(=O)*
